Publication PMC8616366
Results are given in words; binding and its absence hold for the method and conditions named. Binding seen in cells or lysates may run through a third protein. Some results given as binding are weak or reduced against the parent protein; the word gives no strength.

The chains behind the UniProt entries cited, without tags or fusion partners. Residues count along the entry.
UniProt O09165, residues 35-405: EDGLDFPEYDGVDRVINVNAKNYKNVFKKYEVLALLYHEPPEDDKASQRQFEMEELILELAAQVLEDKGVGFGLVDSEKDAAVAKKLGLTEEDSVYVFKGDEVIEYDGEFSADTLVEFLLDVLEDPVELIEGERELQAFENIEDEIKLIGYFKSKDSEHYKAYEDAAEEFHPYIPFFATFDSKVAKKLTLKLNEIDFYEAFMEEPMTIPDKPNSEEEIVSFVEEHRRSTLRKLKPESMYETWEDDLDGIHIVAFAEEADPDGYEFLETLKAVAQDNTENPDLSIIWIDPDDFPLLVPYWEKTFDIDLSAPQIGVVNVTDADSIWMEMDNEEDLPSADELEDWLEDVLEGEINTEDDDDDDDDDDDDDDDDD
UniProt Q8BWG9: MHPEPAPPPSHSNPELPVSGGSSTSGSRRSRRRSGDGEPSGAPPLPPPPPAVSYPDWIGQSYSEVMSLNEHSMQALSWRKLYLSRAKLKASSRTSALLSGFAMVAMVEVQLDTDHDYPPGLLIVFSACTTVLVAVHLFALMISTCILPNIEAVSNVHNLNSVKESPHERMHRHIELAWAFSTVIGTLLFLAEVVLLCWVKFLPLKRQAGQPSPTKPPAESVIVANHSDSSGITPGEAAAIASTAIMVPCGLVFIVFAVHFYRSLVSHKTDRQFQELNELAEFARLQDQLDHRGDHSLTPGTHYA
UniProt P83093, residues 15-746: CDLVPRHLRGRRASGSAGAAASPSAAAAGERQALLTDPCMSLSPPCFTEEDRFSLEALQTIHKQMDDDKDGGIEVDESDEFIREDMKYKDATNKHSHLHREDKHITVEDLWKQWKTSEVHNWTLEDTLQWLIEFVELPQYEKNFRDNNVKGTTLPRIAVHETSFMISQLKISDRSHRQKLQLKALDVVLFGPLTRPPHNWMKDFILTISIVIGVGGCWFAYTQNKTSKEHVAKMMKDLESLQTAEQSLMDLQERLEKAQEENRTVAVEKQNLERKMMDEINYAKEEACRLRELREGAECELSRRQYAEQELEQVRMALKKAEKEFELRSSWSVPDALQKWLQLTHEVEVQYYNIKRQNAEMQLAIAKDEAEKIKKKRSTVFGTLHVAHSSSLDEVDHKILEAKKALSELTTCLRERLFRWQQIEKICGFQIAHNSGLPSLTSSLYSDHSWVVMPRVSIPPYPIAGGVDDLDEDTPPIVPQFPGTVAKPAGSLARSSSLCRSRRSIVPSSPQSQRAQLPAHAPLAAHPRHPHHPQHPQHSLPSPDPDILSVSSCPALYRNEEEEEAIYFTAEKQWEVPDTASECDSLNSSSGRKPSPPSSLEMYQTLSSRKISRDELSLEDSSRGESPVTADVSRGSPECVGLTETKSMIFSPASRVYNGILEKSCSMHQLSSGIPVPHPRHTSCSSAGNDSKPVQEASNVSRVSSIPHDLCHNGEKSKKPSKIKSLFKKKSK

Experiments:
[1] = target: full-length wild-type CASQ1 (WT CASQ1) expressed in mouse primary skeletal myotubes (mouse) (UniProt O09165); assay: co-IP; lysate (100 µg of total protein) of WT CASQ1 or C1-expressing mouse primary skeletal myotubes precipitated with anti-CASQ1 antibody; immunoblot with anti-CASQ1 or anti-STIM2; control without anti-CASQ1 antibody
[2] = target: Orai1, mouse primary skeletal myotubes (mouse (endogenous in primary skeletal myotubes)) (UniProt Q8BWG9); assay: co-IP; lysate (100 µg of total protein) of mouse primary skeletal myotubes transfected with vector control, WT CASQ1 or C1, precipitated with anti-Orai1 antibody; immunoblot with anti-Orai1 or anti-STIM2; control without anti-Orai1 antibody

binding [1]: binds
binding [2]: binds
Substance: Stromal interaction molecule 2 (STIM2), mouse primary skeletal myotubes (from UniProt P83093 15-746)
